The source of these data is PMC5095291.

Protein sequences, listed by entry. Tags and fused reporters are not part of them.
UniProt Q8CFI0: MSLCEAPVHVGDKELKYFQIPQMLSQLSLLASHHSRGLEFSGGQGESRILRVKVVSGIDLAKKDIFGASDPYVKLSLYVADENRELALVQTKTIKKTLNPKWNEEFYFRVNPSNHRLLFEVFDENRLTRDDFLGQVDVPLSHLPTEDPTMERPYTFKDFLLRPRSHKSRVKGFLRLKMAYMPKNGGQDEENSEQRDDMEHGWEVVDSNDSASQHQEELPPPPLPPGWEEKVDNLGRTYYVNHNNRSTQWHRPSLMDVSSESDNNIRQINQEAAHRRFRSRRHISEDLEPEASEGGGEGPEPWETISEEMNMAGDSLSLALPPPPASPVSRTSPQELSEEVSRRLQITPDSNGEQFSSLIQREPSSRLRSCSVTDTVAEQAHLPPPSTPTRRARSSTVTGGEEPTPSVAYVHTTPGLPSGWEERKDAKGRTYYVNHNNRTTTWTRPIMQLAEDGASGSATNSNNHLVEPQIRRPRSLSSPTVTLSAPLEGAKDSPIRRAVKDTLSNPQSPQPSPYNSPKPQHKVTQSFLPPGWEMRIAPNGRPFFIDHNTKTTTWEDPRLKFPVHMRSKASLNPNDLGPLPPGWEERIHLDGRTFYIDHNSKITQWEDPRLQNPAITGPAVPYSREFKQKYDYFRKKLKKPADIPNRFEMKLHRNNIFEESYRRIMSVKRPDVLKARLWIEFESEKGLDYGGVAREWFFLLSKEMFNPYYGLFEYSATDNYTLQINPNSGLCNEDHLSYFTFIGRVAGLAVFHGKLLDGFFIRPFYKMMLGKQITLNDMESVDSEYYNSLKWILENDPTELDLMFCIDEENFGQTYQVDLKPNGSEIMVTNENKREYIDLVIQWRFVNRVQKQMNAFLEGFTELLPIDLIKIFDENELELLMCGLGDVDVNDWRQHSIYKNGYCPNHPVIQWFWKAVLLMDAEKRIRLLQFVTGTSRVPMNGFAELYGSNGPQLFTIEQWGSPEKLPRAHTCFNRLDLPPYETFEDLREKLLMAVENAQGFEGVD

Results are given in words; binding and its absence hold for the method and conditions named. In cells and extracts the contact can be indirect. Some results given as binding are weak or reduced against the parent protein; the word gives no strength.

The target in the experiment is T1, Ndfip1 (Nedd4 family interacting protein 1) (mouse (endogenous in FLMCs and BMCMCs)) (UniProt Q8R0W6).
T1 sequence: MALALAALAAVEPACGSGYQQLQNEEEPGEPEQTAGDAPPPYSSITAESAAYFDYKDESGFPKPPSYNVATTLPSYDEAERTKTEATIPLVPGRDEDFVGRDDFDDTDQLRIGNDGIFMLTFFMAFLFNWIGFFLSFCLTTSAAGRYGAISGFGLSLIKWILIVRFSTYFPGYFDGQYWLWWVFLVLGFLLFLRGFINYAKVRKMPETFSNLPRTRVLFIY
The experiment in a line: co-IP; endogenous proteins in lysates of IgE anti-DNP (SPE-7) sensitised FLMCs, without or with DNP-HSA (20 ng/ml) for the indicated times; lysis buffer with 50 mM Tris, 100 mM NaCl, 5 mM EDTA, 1% Triton X-100; IP with anti-Syk, anti-p-Syk or anti-Ndfip1 on Protein A Sepharose, blot for Nedd4-2; Nedd4-2-/- FLMCs and IP without antibody as controls.

For the substance “Nedd4-2 (Neural precursor cell-expressed developmentally downregulated gene 4-like) (from UniProt Q8CFI0 1-1004) (enzyme)”, the binding entry was “binds”.
